± gives the standard deviation. This is a selection; strong and weak results do not stand in their true shares. The uncertainty is large for many entries.
Test system: MIWI (PIWIL1) piRISC loaded with piRNA #1 (30 nt)
Test: pre-steady-state target cleavage rate (min^-1); MIWI and MILI are mouse PIWI proteins and EfPiwi is from a freshwater sponge; tags in brackets are library labels; higher = faster piRNA-guided slicing of the target
Details: guide: piRNA #1 5'p-UGAGGUAGUAGGUUGUAUAGUAUCCAGAGG; auxiliary factor: 500 nM mouse GTSF1
How it was run: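 The pre-steady-state cleavage rate was calculated from a burst-and-steady-state fit. Data came from Cleave-'n-Seq, in which […] transcribed, DNA-blocked target RNA library was mixed with 1 nM active affinity-purified piRISC carrying one synthetic guide, with or without 500 nM GTSF1 partner protein, in HEPES–potassium acetate buffer at 33 °C for 0–8 or 0–960 min. Uncleaved targets were sequenced and normalised to depth and to weakly complementary targets, three trials were pooled, and k3 was capped at 0.0001 min^-1.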
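Also: 1 nM active piRISC with 0.1 nM target library at 33 °C single turnover.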

Sequence | pre-steady-state target cleavage rate
CCACAGGAUACUAUACAACCUACUACCUCA | 1.87 ± 0.13
CCUCUGGUUACUAUUCAACCUACUACCUCA | 2.15 ± 0.14
CCUCUGGAUACUAUACAACCUACUAUCUCA | 1.09 ± 0.076
GCUCUCGAUACUAUACAACCUACAACCUCA | 1.01 ± 0.078
GGAGACGAUACUAUACAACCAUACUACCUCA | 0.00194 ± 0.0054
GGAGACCUUACUAUUGUACCUACUACCUCA | 0.00136 ± 0.0041
GCUCUGGAUACUAUACUUGGAUGAUGGAGA [g15:g29:cont:t1A] | 0.000386 ± 0.018
GGUCACCAUACUAUACAACCUACUACCUCA | 1.77 ± 0.11
CCUCUGGAAACUAUACAACCUACUACCACA | 2.19 ± 0.26
GGUCUGGAUACAUACAACCUACUACCUCA | 1.44 ± 0.11
GCUCAGGAUACUAAACAACCUACUACCUCA | 1.95 ± 0.12
GCUCUGGAUACUAUACAACCAUCUACCUCA | 0.0463 ± 0.011
CCUAUGGAUACUAUACAACCUACUACCUCA | 2.15 ± 0.12
GGACUGGAUACCUAUACAACCUACUACCUCA | 1.15 ± 0.095
GCUCACGAUACUAUACAACCUACUACCUCA | 1.83 ± 0.092
GGACUGGAUACUAUCCAACCUACUACCUCA | 1.76 ± 0.11
GGACUGGAUACUAUACAACCCUACUACCUCA | 0.000192 ± 0.022
GGUCUGGAUACUAUACAACCUACAUGGAGA [g8:g28:cont:t1A] | 0.00011 ± 0.034
GGAGACCUAUGAUUACAACUUACUACCUCA | 0.00136 ± 0.0034
CCUCUUGAUACUAUACAACCUACUACCUCA | 2.33 ± 0.14

Sequence | pre-steady-state target cleavage rate
CCUCUGGAUACUAUACAACCAUGAUGGAGA [g11:g30:cont:t1A] | 0.00303 ± 0.0049
CCUCUGGAUACUAUACAACCUACUCCUCA | 0.105 ± 0.022
GCUCAGCAUACUAUACAACCUACUACCUCA | 1.83 ± 0.11
GGAGACCUAUCUAUACAACCGUACUACCUCA | 0.00156 ± 0.0047
GGACUGGAAACUAUACAACCUACUACCUCA | 1.44 ± 0.097
GGAGACCUAUGAUAUGUUGGUAUACCUCA | 0.000223 ± 0.018
GGACUGGAUACUAUACAACCUUGAACCUCA | 0.000593 ± 0.009
CCUCGGGAUACUAUACAACCUACUACCUCA | 2.3 ± 0.16
GGAGACCUAACUAUACACACCUACUACCUCA | 0.000187 ± 0.023
GGAGACCUAUGUAUACUUGCUACUACCUCA | 0.000125 ± 0.016
GGAGACCUAUCAAAACAACCUACUACCUCA | 0.00233 ± 0.0046
CCUCUGGAUAGUAUACAACCUACUUCCUCA | 0.21 ± 0.034
CCUCUGGUUUCUAUACAACCUACUACCUCA | 2.25 ± 0.15
GGUCUGGAUACUAUAGAACCUACUAGCUCA | 0.00019 ± 0.02
GGAGACCUAUGUAUACUACCUUCUACCUCA | 0.00089 ± 0.0034
CCUCUGGAUAGUAUACAACGUACUACCUCA | 0.0367 ± 0.011
GGUCUGGAUACUAUAGAACCUAGUACCUCA | 0.000807 ± 0.0047
CCUCUGGAUACUAUACAACCUACUACCUA | 1.52 ± 0.096
GGAGACCUAUGAUAACAACCUACUACCGCA | 0.00137 ± 0.0048
GGAGACCUAUGAUAACAACCUACAACCUCA | 0.000201 ± 0.012

Quoted at random: two entries already listed.
Sequence | pre-steady-state target cleavage rate
GGAGACCUAUGUAUACUUGCUACUACCUCA | 0.000125 ± 0.016
GGAGACGAUACUAUACAACCAUACUACCUCA | 0.00194 ± 0.0054

Source: the supplement of paper PMC10338343
